The source of these data is the supplement of paper PMC4604168 (melanoma cell lines).

Some of the results follow. Single values are uncertain, as repeats are few or missing.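 The apoptosis fraction was the count of cleaved-PARP antibody-stained nuclei relative to all DNA-stained nuclei, imaged in 1,536-well plates. Screening doses were set so most cells survived, and baseline and induced cleaved-PARP levels vary greatly across cell lines.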

For the first experiment, the system named is SkMel30. Put plainly: cleaved PARP positive nuclei fraction relative to DMSO control; melanoma cells; higher = more apoptosis. Conditions: library dose: low library concentration; 72 h.
Turning to `C=CCn1c(=O)c2cnc(Nc3ccc(N4CCN(C)CC4)cc3)nc2n1-c1cccc(C(C)(C)O)n1` + O=C1NC(=O)/C(=C/c2ccc(-c3ccc(F)cc3O)o2)S1 [AS252424] (first compound 0.02 µM, partner dose 1 µM), the “cleaved PARP positive nuclei fraction” value amounted to 138%.

Turning to `CC1(C)NC(=O)N(c2ccc([N+](=O)[O-])c(C(F)(F)F)c2)C1=O` [nilutamide] + COc1ccc(-c2ccc3c(N4CCOCC4)nc(N4C[C@@H](C)O[C@@H](C)C4)nc3n2)cc1CO [KU0063794] (first compound 1 µM, partner dose 0.02 µM), the “cleaved PARP positive nuclei fraction” value was 20.4%. On the same count and under the same terms, under `CC(C)(C)c1cnc(CSc2cnc(NC(=O)C3CCNCC3)s2)o1` + Oc1nc(-c2ccc(C(F)(F)F)cc2)nc2c1CSCC2 [XAV939] (first compound 0.01 µM, partner dose 2 µM) stands 273%; under `COCC[n+]1c2c(n(Cc3cnccn3)c1C)C(=O)c1ccccc1C2=O` + COc1ccc(COc2ccc(Cc3cnc(N)nc3N)cc2OC)cc1 [GW2580] (first compound 0.0004 µM, partner dose 1 µM), 92.1%; under `Nc1cccc2c1CN(C1CCC(=O)NC1=O)C2=O` (stereo not given) [lenalidomide] + COc1cc2ncnc(Nc3ccc(Oc4ccccc4)cc3)c2cc1OC [SrcI1] (first compound 1 µM, partner dose 2 µM), 37.4%.

Regarding `CO[C@@H]1[C@H](N(C)C(=O)c2ccccc2)C[C@H]2O[C@]1(C)n1c3ccccc3c3c4c(c5c6ccccc6n2c5c31)C(=O)NC4` [Midostaurin] + COc1ccc2c(c1)CCC1C2CCC2(C)C(NCCCCCCN3C(=O)C=CC3=O)CCC12 [U73122] (first compound 0.08 µM, partner dose 0.4 µM), the “cleaved PARP positive nuclei fraction” value was 20.8%.

The test system of another experiment is SkMel5. Described as above. The conditions noted are these: library dose: low library concentration; 72 h.
Turning to `C=CCn1c(=O)c2cnc(Nc3ccc(N4CCN(C)CC4)cc3)nc2n1-c1cccc(C(C)(C)O)n1` + CCCCCCCCCCCC1=C(O)C(=O)C=C(O)C1=O [Embelin] (first compound 0.02 µM, partner dose 1.2 µM), the “cleaved PARP positive nuclei fraction” value is 548%. Take `Cc1cc(N2CCOCC2)cc2[nH]c(-c3c(NC[C@@H](O)c4cccc(Cl)c4)cc[nH]c3=O)nc12` + COc1ccc(-c2ccc3c(N4CCOCC4)nc(N4C[C@@H](C)O[C@@H](C)C4)nc3n2)cc1CO [KU0063794] (first compound 0.2 µM, partner dose 0.02 µM): the “cleaved PARP positive nuclei fraction” value amounted to 61.4%. For `COCC[n+]1c2c(n(Cc3cnccn3)c1C)C(=O)c1ccccc1C2=O` + O=C1NC(=O)/C(=C/c2ccc(-c3ccc(F)cc3O)o2)S1 [AS252424] (first compound 0.0004 µM, partner dose 1 µM), the “cleaved PARP positive nuclei fraction” value is 106%.

On to `Cn1nnc2c(C(N)=O)ncn2c1=O` [temozolomide] + CCc1ccc(CCOc2ccc(CC3SC(=O)NC3=O)cc2)nc1 [pioglitazone] (first compound 2 µM, partner dose 2 µM), for which the “cleaved PARP positive nuclei fraction” value came out at 55.4%.

Regarding `C#Cc1cccc(Nc2ncnc3cc(OCCOC)c(OCCOC)cc23)c1` [erlotinib] + Oc1cc(-c2nc(-c3ccccc3)[nH]c2-c2ccncc2)ccc1Cl [L779450] (first compound 0.8 µM, partner dose 0.2 µM), the “cleaved PARP positive nuclei fraction” value was 36.6%.

On to `Cc1ccc(NC(=O)c2cccc(N(C)C)c2)cc1NC(=O)c1ccc(O)cc1` + CCN(CC)CCCCNc1ncc2cc(-c3cc(OC)cc(OC)c3)c(NC(=O)NC(C)(C)C)nc2n1 [PD173074] (first compound 2 µM, partner dose 0.1 µM), for which the “cleaved PARP positive nuclei fraction” value was 27.8%. On the same count and under the same terms, under `Cn1cncc1[C@@](N)(c1ccc(Cl)cc1)c1ccc2c(c1)c(-c1cccc(Cl)c1)cc(=O)n2C` [tipifarnib] + CCCCCCCCCCCC1=C(O)C(=O)C=C(O)C1=O [Embelin] (first compound 0.01 µM, partner dose 1.2 µM) stands 106%. In the case of `O=C(CCCCCCC(=O)Nc1ccccc1)NO` [vorinostat] + c1cc(-c2cnn3cc(-c4ccc(OCCN5CCCCC5)cc4)cnc23)ccn1 [Dorsomorphin] (first compound 0.08 µM, partner dose 0.4 µM), the “cleaved PARP positive nuclei fraction” value was 104%.

For `NC(=O)Nc1cc(-c2cccc(F)c2)sc1C(=O)N[C@H]1CCCNC1` + COC(=O)c1sccc1S(=O)(=O)Nc1ccc(Nc2ccccc2)cc1OC [GSK0660] (first compound 0.02 µM, partner dose 1 µM), the “cleaved PARP positive nuclei fraction” value stood at 23.4%.
